Values quoted from earlier work in patent publication US20170049816A1, “Methods of Benchmarking Wellness with a Stable Reactive Oxygen Species Solution” (Reoxcyn Discoveries Group, Inc., priority 2013, published 2017).
At least one structure is not confirmed: it was looked up by name or label, or the drawing left a doubt.

Conditions: pH-neutral aqueous solution (pH around 7.0) at room temperature

For `[O]O` [superoxide free radicals (O2*-)], the half-life is given as ~10's milliseconds.
